This passage reports binding results from patent publication US20030152946A1, “Bh4-fused polypeptides” (priority 1999, published 2003).

Amino acid sequences for entries named in this document (tags omitted). Residues count along the entry.
UniProt Q9Z2L0, residues 2-283: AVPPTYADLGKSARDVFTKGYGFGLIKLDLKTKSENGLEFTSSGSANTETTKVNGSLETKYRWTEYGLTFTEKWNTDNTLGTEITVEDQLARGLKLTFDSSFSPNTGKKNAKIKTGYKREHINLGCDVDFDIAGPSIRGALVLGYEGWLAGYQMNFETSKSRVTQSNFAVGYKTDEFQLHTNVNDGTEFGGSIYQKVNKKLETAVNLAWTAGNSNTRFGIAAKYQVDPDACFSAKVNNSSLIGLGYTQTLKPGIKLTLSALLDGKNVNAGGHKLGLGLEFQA

No constants are given. Whether binding was seen depends on the method and setting. Some results given as binding are weak or reduced against the parent protein; the word gives no strength.

The target in the test is rat liver VDAC (voltage-dependent anion channel) (rat) (UniProt Q9Z2L0). Briefly: peptide incubated with isolated mitochondria, immunoprecipitation with anti-Bcl-xL S18, Western blot with anti-VDAC.

In the case of SQSNRELVVDFLSYKLSQ [N-terminal (amino acid nos: 2 to 19) polypeptide of Bcl-xL], the binding entry is given as “binds”.
